Data on 15 sequences can be found in paper PMC8384837.

What all share (details): yeast three-hybrid, YBZ-1, SC-Leu-His + 0.5 mM 3-AT, 4 days
The target of assay [1] is T1, PUM1 PUF domain R2-VFQ R3-THE R4-TFR N899V + Y900F + C935T + R936H + Q939E + N971T + H972F + Q975R (UniProt Q14671).
T1 sequence: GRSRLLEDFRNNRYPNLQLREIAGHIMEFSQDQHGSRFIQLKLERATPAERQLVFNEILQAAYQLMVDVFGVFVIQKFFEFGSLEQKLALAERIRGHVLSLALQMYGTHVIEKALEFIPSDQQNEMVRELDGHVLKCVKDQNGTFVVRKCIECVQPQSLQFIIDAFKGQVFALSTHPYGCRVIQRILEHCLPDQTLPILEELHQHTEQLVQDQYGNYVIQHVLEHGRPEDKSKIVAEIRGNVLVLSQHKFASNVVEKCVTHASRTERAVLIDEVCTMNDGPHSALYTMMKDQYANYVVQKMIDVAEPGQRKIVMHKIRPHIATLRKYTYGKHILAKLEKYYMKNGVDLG

Assay [2] concerns the target T2, PUM1 PUF domain R3-THE R4-TFR R7-NPG C935T + R936H + Q939E + N971T + H972F + Q975R + S1079N + N1080P + E1083G (Homo sapiens) (UniProt Q14671).
T2 sequence: T1 sequence with V72N, F73Y, S252N, N253P, E256G

Assay [3] addresses T3, PUM1 PUF domain R6-SWD R7-NPG N1043S + Y1044W + Q1047D + S1079N + N1080P + E1083G (UniProt Q14671).
T3 sequence: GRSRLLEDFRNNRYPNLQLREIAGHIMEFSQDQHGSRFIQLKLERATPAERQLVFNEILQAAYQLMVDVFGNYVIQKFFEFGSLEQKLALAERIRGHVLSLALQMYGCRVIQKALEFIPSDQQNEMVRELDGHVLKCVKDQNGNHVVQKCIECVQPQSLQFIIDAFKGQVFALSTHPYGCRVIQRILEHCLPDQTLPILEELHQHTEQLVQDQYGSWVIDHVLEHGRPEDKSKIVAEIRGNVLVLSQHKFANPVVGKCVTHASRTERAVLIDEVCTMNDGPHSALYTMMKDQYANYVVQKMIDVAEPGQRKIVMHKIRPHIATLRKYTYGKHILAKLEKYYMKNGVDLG

Assay [4] addresses T4, PUM1 PUF domain R3-THE R4-TFR R7-NPG C935T + R936H + Q939E + N971T + H972F + Q975R + S1079N + N1080P + E1083G (UniProt Q14671).
T4 sequence: T1 sequence with V72N, F73Y, S252N, N253P, E256G

Assay [5] has as its target T5, PUM1 PUF domain R5-PHQ R6-SWD C1007P + R1008H + N1043S + Y1044W + Q1047D (UniProt Q14671).
T5 sequence: T3 sequence with C180P, R181H, N252S, P253N, G256E

Assay [6] addresses T6, PUM1 PUF domain R6-SWD R7-NPG N1043S + Y1044W + Q1047D + S1079N + N1080P + E1083G (Homo sapiens) (UniProt Q14671).
T6 sequence: T3 sequence

Residue numbers refer to the chain shown, from its start. Some of the results follow. For some of these results: At the low end of the ranking the order means little. For some of these results: The exact form of the protein is not confirmed.

In the case of “GGCUAGAACUAGUGGAUCCCCCGGCGCCCGGCGGCUCGAGCCCGGGUAAGUUGCAAAGGUCUGCAUGCCGCCGGGCGCCAUGCCUGCAGGUCGACUCUAGAAAACAUG”, the binding signal (log2 enrichment (interaction score)) in assay [1] was -5.52; in assay [2], less than -1.37; in assay [3] it was -2.53.

Take “GGCUAGAACUAGUGGAUCCCCCGGCGCCCGGCGGCUCGAGCCCGGGUAAGAUUACGUCGUCUGCAUGCCGCCGGGCGCCAUGCCUGCAGGUCGACUCUAGAAAACAUG”: the binding signal (log2 enrichment (interaction score)) in assay [1] was -5.29; in assay [4], -2.51.

With “GGCUAGAACUAGUGGAUCCCCCGGCGCCCGGCGGCUCGAGCCCGGGUAAGUCGAAAACGUCUGCAUGCCGCCGGGCGCCAUGCCUGCAGGUCGACUCUAGAAAACAUG”, the binding signal (log2 enrichment (interaction score)) in assay [1] is -5.06; in assay [2], -0.99; in assay [5], less than -8.3; in assay [6] it was -0.94.

On to “GGCUAGAACUAGUGGAUCCCCCGGCGCCCGGCGGCUCGAGCCCGGGUAAGUAUUGAUCGUCUGCAUGCCGCCGGGCGCCAUGCCUGCAGGUCGACUCUAGAAAACAUG”, for which the binding signal (log2 enrichment (interaction score)) in assay [1] was -6.34; in assay [2], -1.89; in assay [6] it was -0.63.

In the case of “GGCUAGAACUAGUGGAUCCCCCGGCGCCCGGCGGCUCGAGCCCGGGUAAGUUGAACACGUCUGCAUGCCGCCGGGCGCCAUGCCUGCAGGUCGACUCUAGAAAACAUG”, the binding signal (log2 enrichment (interaction score)) in assay [1] was -5.34; in assay [2] it was -1.76; in assay [5], -9.09; in assay [6] it was -1.71.

Consider “GGCUAGAACUAGUGGAUCCCCCGGCGCCCGGCGGCUCGAGCCCGGGUAAGUUGUCAGAGUCUGCAUGCCGCCGGGCGCCAUGCCUGCAGGUCGACUCUAGAAAACAUG”, for which the binding signal (log2 enrichment (interaction score)) was -4.94 in assay [1], -1.78 in assay [2] and less than -6.55 in assay [5].

As to “GGCUAGAACUAGUGGAUCCCCCGGCGCCCGGCGGCUCGAGCCCGGGUAAGGUGAUGUAGUCUGCAUGCCGCCGGGCGCCAUGCCUGCAGGUCGACUCUAGAAAACAUG”, the binding signal (log2 enrichment (interaction score)) in assay [1] is -5.4; in assay [4], -2.06; in assay [6], -0.29.

For “GGCUAGAACUAGUGGAUCCCCCGGCGCCCGGCGGCUCGAGCCCGGGUAAGUUGAGAACGUCUGCAUGCCGCCGGGCGCCAUGCCUGCAGGUCGACUCUAGAAAACAUG”, the binding signal (log2 enrichment (interaction score)) was -6.3 in assay [1], less than -1.35 in assay [2] and -7.6 in assay [5].

Consider “GGCUAGAACUAGUGGAUCCCCCGGCGCCCGGCGGCUCGAGCCCGGGUAAGGUGACGCCGUCUGCAUGCCGCCGGGCGCCAUGCCUGCAGGUCGACUCUAGAAAACAUG”, for which the binding signal (log2 enrichment (interaction score)) was -5.63 in assay [1] and -2.19 in assay [4].

Regarding “GGCUAGAACUAGUGGAUCCCCCGGCGCCCGGCGGCUCGAGCCCGGGUAAGAGGAAGUCGUCUGCAUGCCGCCGGGCGCCAUGCCUGCAGGUCGACUCUAGAAAACAUG”, the binding signal (log2 enrichment (interaction score)) is -5.08 in assay [1] and -6.77 in assay [5].

With “GGCUAGAACUAGUGGAUCCCCCGGCGCCCGGCGGCUCGAGCCCGGGUAAGUUUAAACGGUCUGCAUGCCGCCGGGCGCCAUGCCUGCAGGUCGACUCUAGAAAACAUG”, the binding signal (log2 enrichment (interaction score)) in assay [1] is -5.08; in assay [2], -1.49; in assay [5], -7.68.

For the sequence “GGCUAGAACUAGUGGAUCCCCCGGCGCCCGGCGGCUCGAGCCCGGGUAAGUAGAAGAUGUCUGCAUGCCGCCGGGCGCCAUGCCUGCAGGUCGACUCUAGAAAACAUG”, the results for the binding signal (log2 enrichment (interaction score)) in assay [1] and in assay [5] were less than -6.35 and -7.87, respectively.

As to “GGCUAGAACUAGUGGAUCCCCCGGCGCCCGGCGGCUCGAGCCCGGGUAAGUUGAAGAUGUCUGCAUGCCGCCGGGCGCCAUGCCUGCAGGUCGACUCUAGAAAACAUG”, the binding signal (log2 enrichment (interaction score)) in assay [1] was -5.78; in assay [2], less than -0.09; in assay [5] it was -7.97; in assay [6] it was -1.05.

With “GGCUAGAACUAGUGGAUCCCCCGGCGCCCGGCGGCUCGAGCCCGGGUAAGGUGAAAAUGUCUGCAUGCCGCCGGGCGCCAUGCCUGCAGGUCGACUCUAGAAAACAUG”, the figures for the binding signal (log2 enrichment (interaction score)) in assay [1], in assay [2] and in assay [5] were -5.23, -1.77 and -7.52, respectively.

Regarding “GGCUAGAACUAGUGGAUCCCCCGGCGCCCGGCGGCUCGAGCCCGGGUAAGCGUACGUAGUCUGCAUGCCGCCGGGCGCCAUGCCUGCAGGUCGACUCUAGAAAACAUG”, the binding signal (log2 enrichment (interaction score)) was -5.23 in assay [1] and less than -6.94 in assay [5].
